Experimental data reported in publication PMC7582705, “Structure-Based Discovery of Novel Chemical Classes of Autotaxin Inhibitors” (International Journal of Molecular Sciences, 2020).

What follows are molecules tested on choline oxidase and/or HRP (assay: Second/third reaction of the Amplex Red assay, in the absence of ATX). Conditions: no ATX, choline chloride 2 µM; compounds at 100 μM (KM-28 50 μM, SC-41 30 μM).
Format: biochemical

SMILES | Inhibition of 2nd/3rd Reaction
N#Cc1ccc(-c2c(NC(=O)NS(=O)(=O)c3ccccc3Cl)oc(-c3ccco3)c2C#N)cc1 [CD09529, 2-[({[(2-chlorophenyl)sulphonyl]amino}carbonyl)amino]-4-cyano-3-(4-cyanophenyl)-5-(2-furyl)furan] | YES
O=C(CSc1nc2cc(Cl)ccc2o1)Nc1cc(C(F)(F)F)cc(C(F)(F)F)c1 [HTS01561, N-[3,5-bis(trifluoromethyl)phenyl]-2-[(5-chloro-1,3-benzoxazol-2-yl)thio]acetamide] | YES
CCOC(=O)c1c(CN2CCCCC2)n(Cc2ccccc2)c2cc(Br)c(O)cc12 [KM-14, ethyl 1-benzyl-6-bromo-5-hydroxy-2-(piperidin-1-ylmethyl)-1H-indole-3-carboxylate] | no
CCOC(=O)C1CCN(C(=O)Cc2c(Sc3ccc(Cl)cc3)[nH]c3ccccc23)CC1 [KM-24, ethyl 1-[2-[2-(4-chlorophenyl)sulfanyl-1H-indol-3-yl]acetyl]piperidine-4-carboxylate] | no
COc1cccc(NC(=S)N2CCn3cccc3C2c2ccc(OC)c(OC)c2)c1 (stereo not shown) [KM-26, 1-(3,4-dimethoxyphenyl)-N-(3-methoxyphenyl)-3,4-dihydro-1H-pyrrolo[1,2-a]pyrazine-2-carbothioamide] | partial inhibition and yes
Cc1cccc(C)c1NC(=O)CSc1nc2ccccc2c(=O)n1CCc1cccs1 [KM-28, N-(2,6-dimethylphenyl)-2-[4-oxo-3-(2-thiophen-2-ylethyl)quinazolin-2-yl]sulfanylacetamide] | no
O=C(CCN1CCN(C(=O)OCc2cc(Cl)cc(Cl)c2)CC1)c1ccc2[nH]c(=O)oc2c1 [PF-8380, 3,5-Dichlorobenzyl 4-(3-oxo-3-(2-oxo-2,3-dihydrobenzo[d]oxazol-6-yl)propyl)piperazine-1-carboxylate, reference compound] | no
CC(=O)Oc1ccccc1C(=CC=C(c1ccccc1)c1ccccc1)N1CCOCC1 [RF01254, 2-(1-morpholino-4,4-diphenylbuta-1,3-dienyl)phenyl acetate] | YES
Cc1[nH]c2ccccc2c1C1=CCN(S(=O)(=O)c2cccc3nsnc23)CC1 [SC-41, 4-{[4-(2-Methyl-1H-indol-3-yl)-3,6-dihydropyridin-1(2H)-yl]sulfonyl}-2,1,3-benzothiadiazole] | no
O=C(Nc1c2c(nn1-c1ccc([N+](=O)[O-])cc1)CSC2)c1cccc2ccccc12 [SC-49, N-[2-(4-nitrophenyl)-4,6-dihydrothieno[3,4-c]pyrazol-3-yl]naphthalene-1-carboxamide] | no
